Screen size: about 200,000 compounds; about 25 (0.01%) were called active. Inconclusive results, whose numbers are uncertain, are shown with a selection of clear calls. Calls follow the shape of the dose curve; as a rule, active = well fitted inhibition curve with a large enough effect in the signal ratio, with a control signal flat (not every such curve was filed as active); inconclusive = small, poorly fitted or top-dose-only effect, or effect the other way, or a change in a side signal; inactive = flat fitted curve, though single readings scatter; the % refers to the signal ratio. Potencies of inconclusive entries are doubtful fits and often do not repeat.
Assay: qHTS Assay for Modulators of Lamin A Splicing
Conditions: HeLa LMNA splicing GFP/RFP minigene ratio, 48 h; ratio change, negative = inhibition: at 46.1 µM (top of the series) unless noted
How it was run: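 S3 HeLa cells stably expressing lamin A-EGFP splicing minigene plus DsRed2, 600 cells/well, 48 h compound exposure at 37C. Laser-scanning cytometry; analysed as GFP (500-530 nm)/RFP (575-640 nm) total intensity ratio; 0.5% DMSO vehicle.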
% is scaled to controls: 0 for no effect and ±100 for the full control effect; potency is read from the fitted curve at half-maximal effect.

SMILES | ratio change, negative = inhibition | Potency
CCOC(=O)Cn1nnnc1CN(CCc1ccccc1)Cc1cc2cc(CC)ccc2[nH]c1=O | inactive: 4.69% | –
COc1ccc(C(=O)Oc2c(CN3CCOCC3)cc(Cl)c3cccnc23)cc1 | – | inconclusive: 15.8 µM [falling, single point]
CCN(CC)C(=O)Cn1c(=O)n(-c2ccc(OC)cc2OC)c(=O)c2c(C)c(C(=O)N(CC)CC)sc21 | inactive: 6.27% [at 46 µM] | –
COc1cc(OC)cc(C(=O)NCC(=O)OCC(=O)N2CC(C)CC(C)C2)c1 (stereo unspecified) | inconclusive: 1.49% [at 46 µM] | –
CCN(CC)CCCCCCCCOC(=O)c1cc(OC)c(OC)c(OC)c1 | inconclusive: -51.8% | –
CC(C)N(CC(N)=O)C(=O)c1sc2cc(F)ccc2c1Cl | inconclusive: -7.89% [at 46 µM] | –
O=C(c1cccnc1)c1cccnc1 | inconclusive: -4.1% | –
CC(=O)Nc1nonc1-c1nnc(SCC(=O)Nc2ccccc2)n1-c1ccccc1 | inactive: 4.82% [at 46 µM] | –
CCc1ccc(NC(=O)c2ccccc2SC)cc1 | inconclusive: 27.5% [at 46 µM] | –
COc1cc(Cl)c(S(=O)(=O)N2CC(C)OC(C)C2)cc1Cl (stereo unspecified) | inconclusive: -1.99% | –
CC1CCN(C(=O)CSc2c(C(C)C)cnc3c2c(=O)n(C)c(=O)n3C)CC1 | inconclusive: -12.9% [at 46 µM] | –
CC1=[N+]([O-])C(C)(C)C(c2ccc(Br)cc2)=[N+]1[O-] | inconclusive: 9.13% | –
CCN=C(NCC)SC1CC(=O)N(c2ccccc2)C1=O (stereo unspecified) | inactive: -2.76% | –
O=C(Cn1cc(S(=O)(=O)N2CCCC2)c(S(=O)(=O)N2CCCC2)c1)Nc1cccc(F)c1 | inconclusive: 5.1% [at 46 µM] | –
CCOc1ccc2nc(SC3CC(=O)N(c4ccc(OC)cc4)C3=O)sc2c1 (stereo unspecified) | – | inconclusive: 35.5 µM [cytotoxic, partial curve]
COc1ccc(-c2noc(CCC(=O)Nc3ccc4c(c3)OCCO4)n2)cc1 | inactive: -16.8% | –
COC(=O)c1c(NC(=O)CN2CCN(Cc3ccc4c(c3)OCO4)CC2)sc(C)c1C | inconclusive: -8.51% | –
O=c1c2cn[nH]c2nc(SCc2cccc(Br)c2)n1-c1ccc(Cl)cc1 | inconclusive: 5.79% [at 46 µM] | –
Cc1ccn2c(/C=N/OCc3ccc(F)cc3)c(-c3ccc(Cl)cc3)nc2c1 | inactive: 4.92% | –
Cc1cccc(C)c1NS(=O)(=O)c1ccc(F)cc1 | inconclusive: 19.4% | –
CCN1CCN(c2cc3c(cc2F)c(=O)c(S(=O)(=O)c2ccc(OC)cc2)cn3CC)CC1 | inconclusive: -1.87% [at 46 µM] | –
COc1ccc(C(=O)N=c2nc3ccccn3s2)cc1 | inactive: -2.07% | –

SMILES | ratio change, negative = inhibition | Potency
CCCCNC(=O)c1ccc2c(c1)NC(=O)C(CS(=O)(=O)Cc1cccc(C)c1)N2 (stereo unspecified) | inactive: -6.65% [at 46 µM] | –
CCC(C)C(=O)Nc1nc2ccc(S(C)(=O)=O)cc2s1 (stereo unspecified) | inconclusive: -18.7% [at 46 µM] | –
CCC(=O)Nc1sc2c(c1C#N)CC(C)(CC)OC2 (stereo unspecified) | inactive: 11% | –
CCN1CCN(c2oc(-c3ccc(COc4ccc(C)cc4)o3)nc2C#N)CC1 | inconclusive: -1.25% [at 46 µM] | –
CCOC(=O)Cc1csc(NC(=O)Nc2cccc(Cl)c2)n1 | – | inconclusive: 35.5 µM [fluorescent, single point]
Oc1ccc(/C=C/c2ccc3ccccc3n2)cc1 | – | active: 12.6 µM
Cc1ccc(-c2cc(C(=O)N/N=C/c3c(C)nn(-c4ccccc4)c3C)n[nH]2)s1 | inconclusive: -19.3% | –
COc1cccc(C2CC(c3c(Cl)cccc3Cl)n3nc(N)nc3N2)c1 (stereo unspecified) | inactive: -8.41% | –
CC(C)c1onc(C(=O)NCc2cccs2)c1[N+](=O)[O-] | – | inconclusive: 0.126 µM [activator, full curve, poor fit]
NC(=O)Cc1nc2scc(-c3ccc(Cl)cc3)c2c(=O)[nH]1 | inconclusive: 9.52% [at 1.84 µM] | –
COCCn1nnnc1C(c1cc2cc(C)ccc2[nH]c1=O)N1CCCCCC1 (stereo unspecified) | inactive: 4.09% | –
Cc1nnc(Sc2cc(C(=O)NCc3ccco3)c3ccccc3n2)s1 | inconclusive: -31.6% | –
CCOC(=O)c1nn(-c2ccccc2)c2nnc(Cc3ccc(Cl)cc3)c(=O)n12 | inactive: 3.22% | –
COc1ccccc1-n1c(SCC(=O)NC(C)(C)C)nc(O)cc1=O | inactive: -1.38% | –
Cc1ccc(-c2ccc(C(=O)O)[nH]2)cc1 | inconclusive: 15% | –
CCOc1ccc(C(C)NC(=O)C2CCC2)cc1 (stereo unspecified) | inactive: 1.92% | –
Cc1[nH]n(-c2ccc([N+](=O)[O-])cc2)c(=O)c1C=NCC1CCCO1 (stereo unspecified) | inactive: -14.9% [at 46 µM] | –
O=C(NNS(=O)(=O)c1ccc(Br)cc1)c1sccc1-n1cccc1 | inconclusive: 0.457% [at 46 µM] | –
Cc1ccc(C)n1N1C(=O)/C(=C\c2ccc(Cl)cc2)SC1=S | inactive: -4.31% | –
O=C(NCCc1cccs1)c1cccs1 | inconclusive: -12.6% [at 46 µM] | –
O=C(Cn1nnc(-c2ccc(Cl)cc2)n1)NC1CCN(Cc2ccccc2)CC1 | inconclusive: 7.45% | –
COc1ccc(C(=O)/C=C/c2cc(C(=O)O)cc3c2OCOC3)c(O)c1 | – | inconclusive: 35.5 µM [cytotoxic, single point]

Look-ups from above:
Value of COc1ccc(C(=O)N=c2nc3ccccn3s2)cc1 under ratio change, negative = inhibition: inactive: -2.07%
Value of CCN(CC)C(=O)Cn1c(=O)n(-c2ccc(OC)cc2OC)c(=O)c2c(C)c(C(=O)N(CC)CC)sc21 under ratio change, negative = inhibition: inactive: 6.27% [at 46 µM]
Value of O=C(NCCc1cccs1)c1cccs1 under ratio change, negative = inhibition: inconclusive: -12.6% [at 46 µM]
Value of CC(C)N(CC(N)=O)C(=O)c1sc2cc(F)ccc2c1Cl under ratio change, negative = inhibition: inconclusive: -7.89% [at 46 µM]
Value of CCCCNC(=O)c1ccc2c(c1)NC(=O)C(CS(=O)(=O)Cc1cccc(C)c1)N2 (stereo unspecified) under ratio change, negative = inhibition: inactive: -6.65% [at 46 µM]

(continued)

SMILES | ratio change, negative = inhibition | Potency
COc1cccc(-c2cn3c(n2)sc2cc(C(=O)NCCCc4ccccc4)ccc23)c1 | inconclusive: 39.5% [at 46 µM] | –
C/C(Cl)=C\Cn1c(O)c(N=NC(N)=S)c2cc(Br)ccc21 | – | inconclusive: 5.62 µM [activator, partial curve]
CC(C)(C)NC(=O)C(c1ccco1)N(Cc1ccc2c(c1)OCO2)C(=O)Cn1nnc2ccccc21 (stereo unspecified) | inconclusive: 14.9% | –
Cc1cccc(N=Nc2c(C)nn(-c3ccccc3)c2N)c1C | – | inconclusive: 35.5 µM [falling, single point]
CCOC(=O)NC(CC(=O)O)c1ccc(OC)cc1 (stereo unspecified) | inactive: 7.9% | –
Cc1ccc(NC(=O)CSc2nc3ccccc3c3nc4ccccc4n23)cc1 | inconclusive: -24.2% | –
O=C(CCCc1nc2ccccc2s1)NCc1ccccc1 | inactive: 7.28% | –
O=C(NCc1ccco1)/C(=C/C=C\c1ccccc1)NC(=O)c1ccc(Br)o1 | inconclusive: -67.3% | –
Cc1sc(N2C(=O)C3C4C=CC(C4)C3C2=O)c(C#N)c1C (stereo unspecified) | inactive: -1.9% | –
CCCCS(=O)(=O)c1sc2nc(C)cc(C)c2c1N | inactive: -14.6% | –
CCN1C(=O)/C(=C/C=C2/SCCN2C)SC1=S | inactive: 11.8% | –
CCC(=O)Nc1cccc2ccccc12 | inconclusive: -2.54% [at 46 µM] | –
COCCN(C(=O)C(C)C)c1nnc(-c2ccc(C(C)(C)C)cc2)s1 | inconclusive: 1.45% [at 46 µM] | –
O=C(Oc1coc(CSc2ncccn2)cc1=O)c1ccco1 | inactive: -16% [at 9.22 µM] | –
Cc1nc(-c2ccc(S(=O)(=O)Nc3ccc(C#N)cc3)cc2)co1 | inactive: 7.27% [at 46 µM] | –
COc1cc(NS(=O)(=O)c2cnc(N)nc2)cc(OC)c1 | inactive: 8.68% [at 46 µM] | –
O=C1CC(c2cccs2)Cc2nc(NCC3CCCO3)ncc21 (stereo unspecified) | inconclusive: 8.57% | –
O=C(Cn1cncc1-c1ccc([N+](=O)[O-])cc1)Nc1ccccc1F | inconclusive: 37.9% | –
C#CCn1c(=O)c2c(ncn2C)n(C)c1=O | inconclusive: -21% | –
O=C(O)C(O)C(O)c1nc2ccccc2[nH]1 (stereo unspecified) | inconclusive: -12.9% [at 46 µM] | –
O=C(NCCc1ccccc1)C1(c2cccs2)CCOCC1 | inconclusive: 4.42% [at 46 µM] | –
Cc1cc(Cl)ccc1OCc1nnc2n1CCCCC2 | inconclusive: -14.9% [at 46 µM] | –

Record cards, as listed above. Values in the order: ratio change, negative = inhibition | Potency
`Cc1ccc(NC(=O)CSc2nc3ccccc3c3nc4ccccc4n23)cc1` as listed: inconclusive: -24.2% | –
`CCN1C(=O)/C(=C/C=C2/SCCN2C)SC1=S` as listed: inactive: 11.8% | –

(continued)

SMILES | ratio change, negative = inhibition | Potency
O=C(Cn1nnc2c(cnn2-c2ccc(F)cc2)c1=O)Nc1ccccc1C(F)(F)F | inactive: 22.9% [at 46 µM] | –
COc1cccc(C(=O)N2c3nc(-c4ccco4)nn3C3(CCCCC3)[C@@H]3CCCC[C@@H]32)c1 | inconclusive: 10.1% [at 46 µM] | –
CCCN1C(=O)N(C)C(N(O)C(=O)NC)C1(C)C (stereo unspecified) | inconclusive: 3.79% | –
COc1ccccc1NC(=O)CSc1nc(O)cc(=O)n1-c1ccccc1OC | inactive: 0.959% | –
C#C[C@]1(O)CC[C@H]2[C@@H]3CCC4=CC(=O)CC[C@@H]4[C@H]3CC[C@@]21CC | inconclusive: 24.4% [at 46 µM] | –
O=C(Nc1ccc(F)cc1F)C(Cc1ccccc1)N1Cc2ccccc2C1=O (stereo unspecified) | inactive: 2.94% [at 46 µM] | –
CCN(CC)C(=O)CSc1nc(C)cc(-c2cccs2)c1C#N | inactive: 0.168% | –
CC(/C=N/n1cnnc1)=C\c1ccccc1 | – | inconclusive: 35.5 µM [rising, single point]
CCCN[C@@H](C)C(=O)Nc1ccccc1C | inconclusive: -6.06% | –
Cc1ccc(CC(=O)NCc2ccc3c(c2)OCO3)cc1 | inactive: 11.7% | –
O=C(CCC(=O)N1CC2CCCN2c2ccccc21)NCc1cccc(Cl)c1 (stereo unspecified) | inconclusive: -24.9% [at 46 µM] | –
CCNC(=O)CC1C(=O)N(c2ccc(F)cc2)C(=O)N1Cc1ccc(OC)cc1 (stereo unspecified) | inconclusive: 30.1% | –
Cc1cnc(NC(=O)c2nn(C)cc2[N+](=O)[O-])s1 | inconclusive: -17.6% [at 46 µM] | –
Fc1ccc(/C=C\c2nccc3c2[nH]c2ccccc23)cc1 | inconclusive: 7.95% [at 46 µM] | –
Cc1nc2cc(C(F)(F)F)ccc2n1C | inconclusive: -9.04% [at 46 µM] | –
Cc1nc(N)sc1N=Nc1ccc(Br)cc1 | inconclusive: 35.3% | –
CCOc1cc(NC(=S)NC)c(OCC)cc1NC(=O)c1ccc(OC)cc1 | inconclusive: -8.1% [at 46 µM] | –
COCCN(CC(=O)Nc1cccc(C)c1)S(=O)(=O)c1ccc(S(=O)(=O)N2CCCC2)cc1 | inconclusive: 8.97% | –
CSc1ncc(C(=O)Nc2c(C)cccc2C)c(-c2ccccc2)n1 | inactive: 8.34% [at 46 µM] | –
COc1ccc(CNC(=O)CN(Cc2ccc(Cl)cc2)S(=O)(=O)c2ccccc2)cc1 | – | inconclusive: 35.5 µM [falling, single point]

From PubChem BioAssay AID1487 (National Center for Advancing Translational Sciences (NCATS), 2009)
